Results reported in PubChem BioAssay AID1259354 (Paczesny and Yang Labs, IUPUI and University of Michigan, 2018).
Hit rate of the full screen: of about 78,000 compounds, about 1,800 (2.3%) were called active. Inconclusive means that the source gave no clear call. Such entries were picked first, then a sample of the others. No stated cut-off is given here; in the data, active means inhibition above about 30%; inconclusive means mostly about 10% to 28%; inactive means weaker than that.

Chains of the proteins cited; added tags and fusions are not shown. Lines headed by an entry give the natural chain unless they say otherwise; changes in a name come on top.
UniProt Q01638: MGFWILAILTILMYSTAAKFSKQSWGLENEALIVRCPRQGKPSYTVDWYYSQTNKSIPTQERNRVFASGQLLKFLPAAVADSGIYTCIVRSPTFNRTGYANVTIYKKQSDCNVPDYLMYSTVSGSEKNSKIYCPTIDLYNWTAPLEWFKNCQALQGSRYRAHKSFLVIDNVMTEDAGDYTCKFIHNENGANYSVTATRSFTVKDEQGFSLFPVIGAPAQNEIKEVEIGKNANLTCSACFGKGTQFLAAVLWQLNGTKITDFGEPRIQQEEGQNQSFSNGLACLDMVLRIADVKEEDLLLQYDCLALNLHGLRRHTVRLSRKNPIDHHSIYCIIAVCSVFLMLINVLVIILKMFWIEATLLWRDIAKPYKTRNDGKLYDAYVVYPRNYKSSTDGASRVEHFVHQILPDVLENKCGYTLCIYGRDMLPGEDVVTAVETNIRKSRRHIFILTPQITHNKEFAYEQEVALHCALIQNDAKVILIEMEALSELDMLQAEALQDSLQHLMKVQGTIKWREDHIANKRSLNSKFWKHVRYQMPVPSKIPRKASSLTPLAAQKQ

These compounds were tested against Interleukin-1 receptor-like 1 (Homo sapiens) (UniProt Q01638) (assay: blocks human ST2 binding to IL-33, primary screen, biochemical, AlphaLISA (AID 1259354)). Details: AlphaLISA ST2-Fc/biotin-IL-33 interaction, 1 h; at 17 µM, active compounds read high.

Q: With `C=CCNC(=O)c1cccnc1N1CCN(Cc2ccncc2Cl)CC1` as the compound, how does the inhibition read?
A: Its inhibition is inconclusive: 28%.

Q: With `CN1CCN(C(=O)C2CCN(c3ccc(-c4cccs4)nn3)CC2)CC1` as the compound, how does the inhibition read?
A: Its inhibition is inconclusive: 10%.

Q: With `COc1ccc2cc(-c3[nH]ncc3CN3CCN(c4ccc(O)cc4)CC3)ccc2c1` as the compound, how does the inhibition read?
A: The inhibition was inconclusive: 21%.

Q: With `CCN(CC)CCNC(=O)C1Cc2cc(S(=O)(=O)N3CCOCC3)ccc2N1C(C)=O` (stereo not given) as the compound, how does the inhibition read?
A: The inhibition was inconclusive: 12%.

Q: With `COC(=O)[C@@H](Cc1cccnc1)NC(=O)[C@@H]1CN(C(=O)NC(C)C)CCN1S(C)(=O)=O` as the compound, how does the inhibition read?
A: Its inhibition is inconclusive: 12%.

Q: How did the inhibition turn out when `CC(C)(O)C1CC=C(C(=O)OC[C@H]2O[C@@H](Oc3cc(C(=O)O)cc(O)c3O)[C@H](O)[C@@H](O)[C@@H]2O)CC1` (stereo not given in full) was run?
A: Its inhibition is inconclusive: 15%.

Q: Which inhibition does the source give for `Clc1cccc(-c2nnc3n2N=C(c2cccs2)CS3)c1Cl` here?
A: The inhibition was inconclusive: 12%.

Q: With `Cc1sc2c(c1C)c(=O)n(CCc1ccccc1)c(=O)n2Cc1cc(=O)n2ccccc2n1` as the compound, how does the inhibition read?
A: The inhibition was inconclusive: 11%.

Q: Which inhibition does the source give for `CC(C)C[C@H](CO)NC(=O)C[C@@H]1c2nc(NC(=O)CC(C)(C)C)sc2C[C@@H]2[C@](C)(CO)[C@H](O)CC[C@]21C` here?
A: Its inhibition is inconclusive: 14%.

Q: With `CC(=O)N1c2c(cc(Br)cc2S(=O)(=O)N2c3ccccc3CC2C)CC1C` (stereo not given) as the compound, how does the inhibition read?
A: Its inhibition is inconclusive: 13%.

Q: How did the inhibition turn out when `C[C@H](NC(=O)Cc1ccccc1)c1ccccc1` was run?
A: The inhibition was “inactive”.

Q: How did the inhibition turn out when `COc1ccc(OC)c(-c2nccn2-c2ccc3nc(C)[nH]c3c2)c1` was run?
A: Its inhibition is inconclusive: 24%.

Q: `Cc1sc(N=Cc2ccc(Br)cc2)c(C#N)c1C` was tested. Which inhibition did it give?
A: Its inhibition is active: 55%.

Q: Which inhibition does the source give for `N#CC1=C(N)C(C#N)(C#N)[C@@H](c2ccccc2)[C@@H]2CCCC=C12` here?
A: The inhibition was inconclusive: 14%.

Q: `O=C(CCc1nc(-c2ccccc2F)no1)Nc1ccccn1` was tested. Which inhibition did it give?
A: Its inhibition is inconclusive: 19%.

Q: Which inhibition does the source give for `CCCn1cnnc1CNc1nc(-c2ccccc2)nc2c1CCNC2` here?
A: Its inhibition is “inactive”.

Q: `COc1ccc2cc(-c3nc4ccccc4[nH]3)c(=Nc3ccc(C(N)=O)cc3)oc2c1` was tested. Which inhibition did it give?
A: The inhibition was active: 35%.

Q: Which inhibition does the source give for `CC#CCCC(=O)Nc1ccccc1F` here?
A: The inhibition was inconclusive: 15%.

Q: For `CC1=C(C#N)C(c2cccc(Cl)c2Cl)C2=C(CC(C)(C)CC2=O)N1` (stereo not given), which inhibition is on record?
A: The inhibition was “inactive”.

Q: With `Cn1ccnc1CN(CC(O)CO)C1CC1` (stereo not given) as the compound, how does the inhibition read?
A: The inhibition was “inactive”.

Q: Which inhibition does the source give for `COc1ccc(S(=O)(=O)N2CCN(c3cc(-c4ccccc4C)ncn3)CC2)cc1Cl` here?
A: The inhibition was “inactive”.

Q: With `CCNC(=O)c1cccn1-c1nnc(N2CCCCC2)s1` as the compound, how does the inhibition read?
A: Its inhibition is “inactive”.

Q: How did the inhibition turn out when `COc1ccc(N2CCN(CCNc3ncnc4nc[nH]c34)CC2)cc1` was run?
A: The inhibition was inconclusive: 10%.

Q: Which inhibition does the source give for `CCC1(CC)OC(c2ccc(F)cc2)Nc2ccccc21` (stereo not given) here?
A: Its inhibition is inconclusive: 15%.

Q: How did the inhibition turn out when `Cc1ccccc1C1CCCN(C(=O)c2cn(Cc3ccc(F)cc3)nn2)C1` (stereo not given) was run?
A: The inhibition was “inactive”.

Q: With `Cc1csc(=NC23CC4CC(CC(C4)C2)C3)o1` as the compound, how does the inhibition read?
A: Its inhibition is inconclusive: 21%.

Q: With `CC1=N/C(=C\c2ccc(OC(F)F)cc2)C(=O)O1` as the compound, how does the inhibition read?
A: Its inhibition is “inactive”.

Q: `CC1CCCC(NC(=O)C2CC(=O)N(c3ccc(F)c(Cl)c3)C2)C1C` (stereo not given) was tested. Which inhibition did it give?
A: The inhibition was “inactive”.

Q: With `CSc1ccc(-c2nc(CSCC(=O)NC3CCCCC3)c(C)o2)cc1` as the compound, how does the inhibition read?
A: Its inhibition is “inactive”.

Q: For `CC(=O)C1=NN(c2ccccc2C)C2C(=O)N(c3ccc(Cl)cc3)C(=O)C12` (stereo not given), which inhibition is on record?
A: The inhibition was “inactive”.

Q: Which inhibition does the source give for `Oc1oc(-c2ccc(Cl)cc2)nc1C=Nc1ccccc1Br` here?
A: Its inhibition is active: 31%.

Q: How did the inhibition turn out when `Cc1cc2ncn(S(=O)(=O)c3ccccc3[N+](=O)[O-])c2cc1C` was run?
A: Its inhibition is inconclusive: 26%.

Q: With `Cc1nc2ccccc2c2c1CC(C)O2` (stereo not given) as the compound, how does the inhibition read?
A: Its inhibition is inconclusive: 17%.

Q: For `CC(=O)N1CCCN(CC[C@H]2CN(S(=O)(=O)c3ccccc3)CC[C@H]2CC(=O)O)CC1`, which inhibition is on record?
A: Its inhibition is inconclusive: 20%.

Q: With `COc1ccc(NC2=C(C)C(=O)CC2)cc1` as the compound, how does the inhibition read?
A: Its inhibition is “inactive”.

Q: With `Cc1ccc(N2CCN(C/C=C/c3ccccc3[N+](=O)[O-])CC2)cc1` as the compound, how does the inhibition read?
A: The inhibition was inconclusive: 22%.

Q: For `COc1ccc(-n2nc3c(c2NC(=O)c2ccc(Br)cc2)CSC3)cc1`, which inhibition is on record?
A: The inhibition was inconclusive: 14%.

Q: With `O=C1NCC2(CCN(C(=O)c3ccc4cccc(Cl)c4n3)CC2)O1` as the compound, how does the inhibition read?
A: The inhibition was inconclusive: 22%.

Q: With `CCCCN1C(=O)C(O)=C(C(C)=O)C1c1ccc(OC)c(OC)c1` (stereo not given) as the compound, how does the inhibition read?
A: Its inhibition is “inactive”.

Q: Which inhibition does the source give for `Cc1ccc(Nc2cc(C)nc(Nc3ccc(NC(=O)CCC4CCCCC4)cc3)n2)cc1` here?
A: The inhibition was inconclusive: 21%.

Q: For `Fc1cccc(-c2nnc3n2N=C(c2ccc(Br)s2)CS3)c1`, which inhibition is on record?
A: The inhibition was inconclusive: 23%.

Q: For `Cc1ccc2nc3c(cc(C#N)c(=N)n3CCCn3ccnc3)c(=O)n2c1`, which inhibition is on record?
A: The inhibition was inconclusive: 20%.

Q: How did the inhibition turn out when `O=[N+]([O-])c1ccccc1S(=O)(=O)Nc1ccc(Cl)c(Cl)c1` was run?
A: Its inhibition is “inactive”.

Q: With `O=C(C1=CCCC1)N1CCC2(CCCN(CCc3ccccc3)C2)C1` (stereo not given) as the compound, how does the inhibition read?
A: The inhibition was inconclusive: 10%.

Q: With `O=C(C[C@@H]1O[C@H](CNCc2cccc(Cl)c2)[C@@H](O)[C@H]1O)N1CCOCC1` as the compound, how does the inhibition read?
A: Its inhibition is inconclusive: 15%.

Q: How did the inhibition turn out when `CCN(CC)c1ccc(/C=C2/C(=O)NN(c3ccc(C)c(Cl)c3)C2=O)cc1` was run?
A: Its inhibition is inconclusive: 14%.

Q: How did the inhibition turn out when `Cc1cccc(NC(=O)C(C)SCc2ccccc2)c1C` (stereo not given) was run?
A: Its inhibition is “inactive”.

Q: With `COc1ccc(CNC(=O)CC[C@]23CC[C@](C)(O)C[C@H]2C(C)(C)C[C@@H]3NC(=O)c2cccc(F)c2)cc1` as the compound, how does the inhibition read?
A: Its inhibition is inconclusive: 15%.

Q: Which inhibition does the source give for `COc1cccc(-n2c(C)nc3c(cnn3-c3ccc(Cl)cc3)c2=O)c1` here?
A: The inhibition was inconclusive: 16%.

Q: Which inhibition does the source give for `CCNc1ncc(C(=O)N2CCCC3(C=Cc4ccccc4O3)CC2)cn1` (stereo not given) here?
A: Its inhibition is “inactive”.

Q: For `Cc1cc(C)n(Cc2ccc(C(=O)N(C)Cc3snnc3C)cc2)n1`, which inhibition is on record?
A: Its inhibition is “inactive”.

Q: For `Cc1nnsc1CNC(=O)CSCc1ccccc1Cl`, which inhibition is on record?
A: The inhibition was inconclusive: 11%.

Q: `CCN1CCN(C(c2ccc(Cl)cc2)c2sc3nc(C)nn3c2O)CC1` (stereo not given) was tested. Which inhibition did it give?
A: The inhibition was “inactive”.

Q: With `Oc1ccccc1-c1nnc2n1N=C(c1ccc(Br)cc1)CS2` as the compound, how does the inhibition read?
A: Its inhibition is “inactive”.

Q: Which inhibition does the source give for `CC(=O)Oc1c(C)cc(CN(C)Cc2n[nH]c3c2CCC3)cc1C` here?
A: The inhibition was inconclusive: 10%.

Q: Which inhibition does the source give for `O=c1oc(-c2ccc(F)cc2)nc2ccc(Br)cc12` here?
A: The inhibition was “inactive”.

Q: How did the inhibition turn out when `COc1ccc(-c2nnc(C[C@@H]3C[C@@H](C(C)C)[C@H](CNCCN(C)C)C=C3C)o2)cc1` was run?
A: The inhibition was inconclusive: 18%.

Q: How did the inhibition turn out when `CCc1cnc(C)nc1NCCN(C)S(C)(=O)=O` was run?
A: The inhibition was inconclusive: 23%.

Q: With `O=C(NCCNc1ccc(Cl)cc1[N+](=O)[O-])c1ccccc1O` as the compound, how does the inhibition read?
A: The inhibition was inconclusive: 24%.

Q: How did the inhibition turn out when `N#Cc1cc2cc(Br)ccc2oc1=O` was run?
A: Its inhibition is inconclusive: 11%.
